Here are results for one molecule from article PMC6509336, “Wnt5a is a TLR2/4-ligand that induces tolerance in human myeloid cells” (Communications Biology, 2019).

Amino acid sequences for entries named in this document (tags omitted). Residues count along the entry.
UniProt O00206, residues 24-631: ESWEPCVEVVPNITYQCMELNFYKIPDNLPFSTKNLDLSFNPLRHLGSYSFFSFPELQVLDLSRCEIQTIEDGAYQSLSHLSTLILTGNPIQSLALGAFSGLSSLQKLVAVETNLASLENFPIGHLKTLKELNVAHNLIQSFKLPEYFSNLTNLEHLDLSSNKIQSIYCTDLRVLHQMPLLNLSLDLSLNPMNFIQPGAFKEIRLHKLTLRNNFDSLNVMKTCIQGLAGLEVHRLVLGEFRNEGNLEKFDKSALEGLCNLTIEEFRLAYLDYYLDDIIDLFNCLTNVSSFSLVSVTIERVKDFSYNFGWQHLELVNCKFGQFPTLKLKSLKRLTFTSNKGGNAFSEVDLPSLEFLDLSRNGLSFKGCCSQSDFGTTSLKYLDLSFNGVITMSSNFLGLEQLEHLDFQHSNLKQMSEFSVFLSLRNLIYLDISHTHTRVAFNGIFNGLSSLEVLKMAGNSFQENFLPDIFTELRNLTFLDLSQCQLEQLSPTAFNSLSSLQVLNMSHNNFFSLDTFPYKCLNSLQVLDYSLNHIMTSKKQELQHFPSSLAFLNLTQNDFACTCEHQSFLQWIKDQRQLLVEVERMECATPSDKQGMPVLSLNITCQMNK

For this assay, the target named is T1, rhTLR4 (human, UniProt O00206 24-631).
T1 construct: toll-like receptor 4, recombinant human protein from R&D Systems; No catalogue number or construct limits are printed; also called rhTLR4-his; source: bought: R&D Systems
As to the kind of experiment: native gel or EMSA; rhTLR4 (2.2 ug) and rWnt5a (0.20 ug) mixed at 1:2 molar ratio, 30 min on ice in 10 mM HEPES pH 7.9, 50 mM KCl, 0.2 mM EDTA, 1 mM DTT, 2.5 mM MgCl2, 10% glycerol, 0.05% NP-40; 7% native PAGE; silver stain or blot with anti-Wnt5a and anti-His; the band analysed by LC-MS/MS; both purified.

These are yes or no findings as the source states them, for the method shown. Some results given as binding are weak or reduced against the parent protein; the word gives no strength.

B1: recombinant human/mouse (rh/m)Wnt5a (ligand, UniProt P41221 62-380, looked up)
chain: IIGAQPLCSQLAGLSQGQKKLCHLYQDHMQYIGEGAKTGIKECQYQFRHRRWNCSTVDNTSVFGRVMQIGSRETAFTYAVSAAGVVNAMSRACREGELSTCGCSRAARPKDLPRDWLWGGCGDNIDYGYRFAKEFVDARERERIHAKGSYESARILMNLHNNEAGRRTVYNLADVACKCHGVSGSCSLKTCWLQLADFRKVGDALKEKYDSAAAMRLNSRGKLVQVNSRFNSPTTQDLVYIDPSPDYCVRNESTGSLGTQGRLCNKTSEGMDGCELMCCGRGYDQFKTVQTERCHCKFHWCCYVKCKKCTEIVDQFVCK
notes: Wnt5a, recombinant human/mouse protein from R&D Systems, molecular weight 38,000; Lyophilized from PBS, EDTA and CHAPS; No catalogue number is printed; also called rWnt5a; source: bought: R&D Systems
B1: the binding entry is “binds”.
